Assay results published in patent publication US7288256B1, “T cell epitopes of the major allergens from dermatophagoides (house dust mite)” (Merck Patent GmbH, priority 1991, dated 2007).
Not every detail of the peptide structures is certain; ends, links or a residue may be inferred. Some compounds share one wording; it may come from a single statement. Residues, ends and D or L forms follow the SMILES beside them.

Key:
[1] = tested on: Der f I primed T cell lines; assay: Secondary T cell proliferation assay, T cell lines primed in vitro with Der f I (Examples VI, VII, XI); type: cell-based, human; conditions: for response of T cells from this patient to Der f I peptides: patient 783, primed with recombinant Der f I 20 μg/ml, data not shown; for T cell reactivity of overlapping Der f I peptides: 16 positive experiments, FIG. 6
[2] = tested on: Der p I primed T cell lines; assay: Secondary T cell proliferation assay, T cell lines primed in vitro with Der p I (Examples V, VII, XI, XII); type: cell-based, human; conditions: 30 positive experiments, FIG. 15a

Structure (SMILES) | response of T cells from this patient to Der f I peptides [1] | T cell reactivity of overlapping Der f I peptides [1] | response of Der p I primed T cells to selected Der f I peptides [2]
CC[C@H](C)[C@H](NC(=O)[C@H](CCSC)NC(=O)[C@H](CCSC)NC(=O)[C@H](CC(C)C)NC(=O)[C@H](CC(N)=O)NC(=O)[C@H](CC(N)=O)NC(=O)CNC(=O)[C@H](C)NC(=O)[C@H](CCC(N)=O)NC(=O)[C@H](Cc1ccccc1)NC(=O)[C@H](Cc1ccc(O)cc1)NC(=O)CNC(=O)[C@H](Cc1ccc(O)cc1)NC(=O)CNC(=O)[C@H](CO)NC(=O)[C@H](CC(=O)O)NC(=O)CN)C(=O)N[C@@H](CCC(=O)O)C(=O)N[C@@H](CCC(N)=O)C(=O)N[C@@H](Cc1ccc(O)cc1)C(=O)N1CCC[C@H]1C(=O)N[C@@H](Cc1ccc(O)cc1)C(=O)N[C@H](C(=O)N[C@H](C(=O)N[C@H](C(=O)N[C@@H](CCSC)C(=O)O)[C@@H](C)CC)C(C)C)C(C)C [DF I-17] (H-GDSGYGYFQAGNNLMMIEQYPYVVIM-OH; N-terminus and C-terminus assumed) | respond |  | 
CC[C@H](C)[C@H](NC(=O)CNC(=O)[C@@H](NC(=O)[C@@H](NC(=O)[C@@H](NC(=O)[C@H](C)NC(=O)[C@@H](NC(=O)[C@H](C)NC(=O)[C@@H](NC(=O)[C@H](Cc1c[nH]cn1)NC(=O)[C@@H](NC(=O)[C@H](CCC(N)=O)NC(=O)[C@@H](N)[C@@H](C)O)[C@@H](C)O)[C@@H](C)O)[C@@H](C)CC)C(C)C)[C@@H](C)CC)[C@@H](C)CC)C(=O)N[C@@H](CCCCN)C(=O)N[C@@H](CC(=O)O)C(=O)N[C@@H](CC(C)C)C(=O)N[C@@H](CCCNC(=N)N)C(=O)N[C@@H](C)C(=O)N[C@@H](Cc1ccccc1)C(=O)N[C@@H](CCC(N)=O)C(=O)N[C@@H](Cc1c[nH]cn1)C(=O)N[C@@H](Cc1ccc(O)cc1)C(=O)N[C@@H](CC(=O)O)C(=O)NCC(=O)N[C@@H](CCCNC(=N)N)C(=O)N[C@H](C(=O)O)[C@@H](C)O [DF I-7] (H-TQTHTAIAVIIGIKDLRAFQHYDGRT-OH; N-terminus and C-terminus assumed) |  | significant areas of T cell reactivity | 
CC[C@H](C)[C@H](NC(=O)CNC(=O)[C@H](CCCNC(=N)N)NC(=O)[C@@H]1CCCN1C(=O)[C@@H](NC(=O)[C@@H](NC(=O)[C@H](CC(=O)O)NC(=O)CN)[C@@H](C)O)[C@@H](C)CC)C(=O)N[C@@H](CCC(=O)O)C(=O)N[C@@H](Cc1ccc(O)cc1)C(=O)N[C@H](C(=O)N[C@@H](CCC(N)=O)C(=O)N[C@@H](CCC(N)=O)C(=O)N[C@@H](CC(N)=O)C(=O)NCC(=O)N[C@H](C(=O)N[C@H](C(=O)N[C@@H](CCC(=O)O)C(=O)N[C@@H](CCC(=O)O)C(=O)N[C@@H](CCCNC(=N)N)C(=O)N[C@@H](CO)C(=O)N[C@@H](Cc1ccc(O)cc1)C(=O)N1CCC[C@H]1C(=O)N[C@@H](Cc1ccc(O)cc1)C(=O)N[C@H](C(=O)N[C@@H](C)C(=O)N[C@@H](CCCNC(=N)N)C(=O)N[C@@H](CCC(=O)O)C(=O)O)C(C)C)C(C)C)C(C)C)[C@@H](C)CC [DF I-5] (H-GDTIPRGIEYIQQNGVVEERSYPYVARE-OH; N-terminus and C-terminus assumed) | respond | significant areas of T cell reactivity | 
CC[C@H](C)[C@H](NC(=O)[C@H](Cc1c[nH]c2ccccc12)NC(=O)[C@H](Cc1ccc(O)cc1)NC(=O)[C@H](CC(=O)O)NC(=O)[C@H](CC(=O)O)NC(=O)CNC(=O)[C@@H](N)CCC(N)=O)C(=O)N[C@H](C(=O)N[C@@H](CCCNC(=N)N)C(=O)N[C@@H](CC(N)=O)C(=O)N[C@@H](CO)C(=O)N[C@@H](Cc1c[nH]c2ccccc12)C(=O)N[C@@H](CC(=O)O)C(=O)N[C@H](C(=O)N[C@H](C(=O)N[C@@H](Cc1c[nH]c2ccccc12)C(=O)NCC(=O)N[C@@H](CC(=O)O)C(=O)N[C@@H](CO)C(=O)NCC(=O)N[C@@H](Cc1ccc(O)cc1)C(=O)NCC(=O)N[C@@H](Cc1ccc(O)cc1)C(=O)N[C@@H](Cc1ccccc1)C(=O)O)[C@@H](C)O)[C@@H](C)O)C(C)C [DF I-10] (H-QGDDYWIVRNSWDTTWGDSGYGYF-OH; N-terminus and C-terminus assumed) | respond |  | 
CC[C@H](C)[C@H](NC(=O)[C@H](CC(N)=O)NC(=O)[C@@H](NC(=O)[C@H](C)NC(=O)[C@H](Cc1c[nH]cn1)NC(=O)[C@H](Cc1ccc(O)cc1)NC(=O)[C@H](CC(N)=O)NC(=O)[C@@H]1CCCN1C(=O)[C@H](CCC(N)=O)NC(=O)[C@H](Cc1ccc(O)cc1)NC(=O)CNC(=O)[C@H](CC(N)=O)NC(=O)[C@H](CC(=O)O)NC(=O)[C@@H](N)Cc1c[nH]cn1)C(C)C)C(=O)N[C@H](C(=O)NCC(=O)N[C@@H](Cc1ccc(O)cc1)C(=O)NCC(=O)N[C@@H](CO)C(=O)N[C@H](C(=O)N[C@@H](CCC(N)=O)C(=O)NCC(=O)N[C@@H](CC(=O)O)C(=O)N[C@@H](CC(=O)O)C(=O)N[C@@H](Cc1ccc(O)cc1)C(=O)O)[C@@H](C)O)C(C)C [DF I-27.1] (H-HDNGYQPNYHAVNIVGYGSTQGDDY-OH; N-terminus and C-terminus assumed) |  |  | respond significantly
CC[C@H](C)[C@H](NC(=O)CNC(=O)[C@H](CCCNC(=N)N)NC(=O)[C@@H]1CCCN1C(=O)[C@@H](NC(=O)[C@@H](NC(=O)[C@@H](N)CC(=O)O)[C@@H](C)O)[C@@H](C)CC)C(=O)N[C@@H](CCC(=O)O)C(=O)N[C@@H](Cc1ccc(O)cc1)C(=O)N[C@H](C(=O)N[C@@H](CCC(N)=O)C(=O)N[C@@H](CCC(N)=O)C(=O)N[C@@H](CC(N)=O)C(=O)NCC(=O)N[C@H](C(=O)N[C@H](C(=O)N[C@@H](CCC(=O)O)C(=O)N[C@@H](CCC(=O)O)C(=O)N[C@@H](CCCNC(=N)N)C(=O)N[C@@H](CO)C(=O)N[C@@H](Cc1ccc(O)cc1)C(=O)N1CCC[C@H]1C(=O)N[C@@H](Cc1ccc(O)cc1)C(=O)N[C@H](C(=O)N[C@@H](C)C(=O)N[C@@H](CCCNC(=N)N)C(=O)N[C@@H](CCC(=O)O)C(=O)N[C@@H](CCC(N)=O)C(=O)N[C@@H](CCCNC(=N)N)C(=O)O)C(C)C)C(C)C)C(C)C)[C@@H](C)CC [DF I-23.2] (H-DTIPRGIEYIQQNGVVEERSYPYVAREQR-OH; N-terminus and C-terminus assumed) |  |  | respond significantly
CC[C@H](C)[C@H](N)C(=O)N[C@H](C(=O)NCC(=O)N[C@H](C(=O)N[C@@H](CCCCN)C(=O)N[C@@H](CC(=O)O)C(=O)N[C@@H](CC(C)C)C(=O)N[C@@H](CCCNC(=N)N)C(=O)N[C@@H](C)C(=O)N[C@@H](Cc1ccccc1)C(=O)N[C@@H](CCC(N)=O)C(=O)N[C@@H](Cc1c[nH]cn1)C(=O)N[C@@H](Cc1ccc(O)cc1)C(=O)N[C@@H](CC(=O)O)C(=O)NCC(=O)N[C@@H](CCCNC(=N)N)C(=O)N[C@H](C(=O)N[C@H](C(=O)N[C@H](C(=O)N[C@@H](CCC(N)=O)C(=O)N[C@@H](Cc1c[nH]cn1)C(=O)N[C@@H](CC(=O)O)C(=O)N[C@@H](CC(N)=O)C(=O)NCC(=O)N[C@@H](Cc1ccc(O)cc1)C(=O)N[C@@H](CCC(N)=O)C(=O)O)[C@@H](C)CC)[C@@H](C)CC)[C@@H](C)O)[C@@H](C)CC)[C@@H](C)CC [DF I-26.1] (H-IIGIKDLRAFQHYDGRTIIQHDNGYQ-OH; N-terminus and C-terminus assumed) |  |  | respond significantly
CC[C@H](C)[C@H](N)C(=O)N[C@@H](CCCCN)C(=O)N[C@@H](CC(=O)O)C(=O)N[C@@H](CC(C)C)C(=O)N[C@@H](CCCNC(=N)N)C(=O)N[C@@H](C)C(=O)N[C@@H](Cc1ccccc1)C(=O)N[C@@H](CCC(N)=O)C(=O)N[C@@H](Cc1c[nH]cn1)C(=O)N[C@@H](Cc1ccc(O)cc1)C(=O)N[C@@H](CC(=O)O)C(=O)NCC(=O)N[C@@H](CCCNC(=N)N)C(=O)N[C@H](C(=O)N[C@H](C(=O)N[C@H](C(=O)N[C@@H](CCC(N)=O)C(=O)N[C@@H](Cc1c[nH]cn1)C(=O)N[C@@H](CC(=O)O)C(=O)N[C@@H](CC(N)=O)C(=O)NCC(=O)N[C@@H](Cc1ccc(O)cc1)C(=O)N[C@@H](CCC(N)=O)C(=O)N1CCC[C@H]1C(=O)N[C@@H](CC(N)=O)C(=O)N[C@@H](Cc1ccc(O)cc1)C(=O)O)[C@@H](C)CC)[C@@H](C)CC)[C@@H](C)O [DF I-8.1] (H-IKDLRAFQHYDGRTIIQHDNGYQPNY-OH; N-terminus and C-terminus assumed) | respond | significant areas of T cell reactivity | 
CC[C@H](C)[C@H](NC(=O)[C@H](CCC(N)=O)NC(=O)[C@H](CS)NC(=O)[C@H](Cc1ccc(O)cc1)NC(=O)[C@H](CC(N)=O)NC(=O)[C@H](CO)NC(=O)[C@@H](NC(=O)CNC(=O)[C@H](Cc1ccc(O)cc1)NC(=O)[C@H](Cc1c[nH]cn1)NC(=O)[C@H](CCC(N)=O)NC(=O)[C@H](CO)NC(=O)[C@H](CC(N)=O)NC(=O)[C@@H]1CCCN1C(=O)[C@H](CCCNC(=N)N)NC(=O)[C@H](CCCNC(=N)N)NC(=O)[C@H](CS)NC(=O)[C@H](CCCNC(=N)N)NC(=O)[C@@H](N)CCC(N)=O)[C@@H](C)CC)C(=O)O [DF I-14] (H-QRCRRPNSQHYGISNYCQI-OH; N-terminus and C-terminus assumed) |  | significant areas of T cell reactivity | 
CC[C@H](C)[C@H](NC(=O)[C@@H]1CCCN1C(=O)[C@@H](NC(=O)[C@@H](NC(=O)[C@@H](NC(=O)[C@H](CCCNC(=N)N)NC(=O)[C@H](CC(C)C)NC(=O)[C@H](CO)NC(=O)[C@H](CCCNC(=N)N)NC(=O)[C@H](CC(C)C)NC(=O)[C@H](CC(=O)O)NC(=O)[C@H](CC(C)C)NC(=O)[C@@H](N)CCC(=O)O)[C@@H](C)O)C(C)C)[C@@H](C)O)C(=O)N[C@@H](CCCNC(=N)N)C(=O)N[C@@H](CCSC)C(=O)N[C@@H](CCC(N)=O)C(=O)NCC(=O)NCC(=O)N[C@@H](CS)C(=O)NCC(=O)N[C@@H](CO)C(=O)N[C@@H](CS)C(=O)N[C@@H](Cc1c[nH]c2ccccc12)C(=O)N[C@@H](C)C(=O)N[C@@H](Cc1ccccc1)C(=O)N[C@@H](CO)C(=O)NCC(=O)O [DF I-2.1] (H-ELDLRSLRTVTPIRMQGGCGSCWAFSG-OH; N-terminus and C-terminus assumed) | respond |  | 
